In patent US20250041195A1, “COLLAGEN TYPE III COMPOSITION PREPARED FROM FIBROBLAST EXTRACELLULAR MATRIX” (SINO UNITED (BEIJING) BIOMEDICAL TECHNOLOGY CO., LTD., priority 2022, published 2025):
Part of at least one peptide drawing is inferred or uncertain, most often the ends. Where a SMILES comes first, the peptide text is derived from it.

System: human fibroblasts
Assay: Hydroxyproline content assay (collagen secretion from human fibroblasts)
Assay type: cell-based
Conditions: 200 μg/mL active polypeptide, human fibroblasts of Example 2

Work on `CSCC[C@H](NC(=O)[C@H](CCCCN)NC(=O)[C@H](Cc1c[nH]cn1)NC(=O)[C@H](CCSC)NC(=O)[C@@H](N)CCC(=O)O)C(=O)N[C@@H](CCC(=O)O)C(=O)N1CCC[C@H]1C(=O)N[C@@H](CS)C(=O)N1CCC[C@H]1C(=O)N[C@@H](CCSC)C(=O)N[C@@H](Cc1ccc(O)cc1)C(=O)N[C@@H](CCCNC(=N)N)C(=O)N[C@@H](CCCNC(=N)N)C(=O)N[C@@H](Cc1c[nH]cn1)C(=O)N[C@@H](CC(C)C)C(=O)NCC(=O)O` [active polypeptide, EMHKMEPCPMYRRHLG] (H-EMHKMEPCPMYRRHLG-OH) yielded a hydroxyproline content of 2.42 ± 0.05 µg/mL.
